Hit rate of the full screen: of about 400,000 compounds, about 5,500 (1.4%) were called active. The inconclusive results got no clear call from the source; some entries with a clear call stand among them for comparison. Calls follow the shape of the dose curve; as a rule, active = well fitted cell-killing curve with a large enough effect; inconclusive = small, poorly fitted or top-dose-only effect, or effect the other way; inactive = flat fitted curve, though single readings scatter. Where the call is inconclusive, the potency comes from a doubtful curve fit.
Test: qHTS assay for MDR1-selective chemotherapeutics: Primary screen using the parental adenocarcinoma cell KB-3-1; also: nearly all actives have a fitted effect of over 60% in size
Conditions: KB-3-1 viability, CellTiter-Glo ATP luminescence, 72 h; activity change, negative = cytotoxic: at 46.1 µM (top of the series)
Outline: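 Screening of KB-3-1 cells (DMEM, 10% FBS, phenol-red free) ran from lowest to highest compound concentration; after 72 h at 37 °C viability was read luminescently and curves fitted.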
% is scaled to controls: 0 for no effect and ±100 for the full control effect; potency is read from the fitted curve at half-maximal effect.

Q: For O=C(O)/C=C\C(=O)Nc1ccc(N2CCN(c3ccc(Cl)cc3)CC2)cc1, which Potency is on record?
A: inactive

Q: For CN(C)c1ccc(/C=C/c2ccnc3ccccc23)cc1Br, which Potency is on record?
A: inconclusive: 20.6 µM [cytotoxic, single point]

Q: With CC(=O)c1c(C)n([O-])c2cc(F)c(F)cc2[n+]1=O as the compound, how does the Potency read?
A: active: 16.4 µM

Q: Which Potency does the source give for CCc1ccc(NS(=O)(=O)c2cc(Br)cc3c2N(C(C)=O)CC3)cc1 here?
A: inactive

Q: Which Potency does the source give for CCCCn1c(N)c(N(CC(C)C)C(=O)c2cc(Br)c(Br)s2)c(=O)[nH]c1=O here?
A: inconclusive: 16.4 µM [cytotoxic, single point]

Q: For FC(F)(F)Sc1ccc(NC(=S)NCc2ccccc2)cc1, which Potency is on record?
A: inconclusive: 16.4 µM [cytotoxic, single point]

Q: Which Potency does the source give for C1CCC(C(CC2CCCCN2)C2CCCCC2)CC1 (stereo not given) here?
A: inconclusive: 29.1 µM [cytotoxic, single point]

Q: With Cc1ccc(-n2nc(C(=O)NCc3ccc(C)o3)c3c4ccccc4n(C)c3c2=O)cc1 as the compound, how does the Potency read?
A: inconclusive: 18.4 µM [cytotoxic, single point]

Q: For O=C(CCNc1ccc(F)cc1)c1ccco1, which Potency is on record?
A: inconclusive: 29.1 µM [cytotoxic, single point]

Q: Which Potency does the source give for Cc1ccc(NC(=O)C2CCN(S(=O)(=O)c3cnc[nH]3)CC2)cc1C here?
A: inactive

Q: With COc1[nH]c(/N=C/c2ccco2)c(C#N)c1C#N as the compound, how does the Potency read?
A: inconclusive: 0.184 µM [rising, full curve]

Q: With CN1CCN(c2nc3c(c(=O)[nH]c(=O)n3C)n2Cc2ccccc2)CC1 as the compound, how does the Potency read?
A: inactive

Q: For CCOC(=O)c1ccc(NC(=O)C2CCN(S(=O)(=O)Cc3ccccc3)CC2)cc1, which Potency is on record?
A: inactive

Q: For COc1ncc(C2=CC(=O)CC(C)(C)C2)cn1, which Potency is on record?
A: inactive

Q: For CCn1cc(CN2CCc3c([nH]c4ccccc34)C2c2ccc(F)c(OC)c2)c(C)n1 (stereo not given), which Potency is on record?
A: inconclusive: 29.1 µM [cytotoxic, single point]

Q: For Cc1nc2ccccc2c(=O)n1NCc1cc(Br)cs1, which Potency is on record?
A: inactive

Q: With O=C(c1ccc(F)cc1)c1ccc(CN2C(=O)c3ccccc3C2=O)o1 as the compound, how does the Potency read?
A: inactive

Q: For CCOc1ccc(N(CC)C(=O)c2cc3c(s2)-c2ccc(Cl)cc2SC3)cc1, which Potency is on record?
A: inconclusive: 14.6 µM [cytotoxic, partial curve, poor fit]

Q: For Cn1nccc1C(=O)OCC(=O)Nc1ccc(S(N)(=O)=O)cc1, which Potency is on record?
A: inconclusive: 8.2 µM [rising, partial curve]

Q: Which Potency does the source give for COc1cc(OC)c(CN2CCC(Cc3ccccc3)CC2)cc1Br here?
A: inconclusive: 32.6 µM [cytotoxic, single point]

Q: For CCN1CCN(CC(=O)Nc2sc3c(c2C#N)CCC(C)C3)CC1 (stereo not given), which Potency is on record?
A: inconclusive: 20.6 µM [cytotoxic, single point]

Q: For COc1ccc(CCNC(=O)C2CCN(Cc3nc(-c4cccc(Cl)c4)oc3C)CC2)cc1OC, which Potency is on record?
A: inconclusive: 18.4 µM [cytotoxic, single point]

Q: For CC1(C)SC(=S)N(/N=C/c2ccc(O)cc2)C1N(O)C(=O)Nc1ccc([N+](=O)[O-])cc1 (stereo not given), which Potency is on record?
A: inconclusive: 29.1 µM [cytotoxic, single point]

Q: With O=C(Nc1nnc(-c2ccncc2)s1)Oc1ccc2ccccc2c1 as the compound, how does the Potency read?
A: inconclusive: 13 µM [rising, partial curve, poor fit]

Q: For Cc1ccc(C(CC(=O)N2CCOCC2)c2ccco2)cc1 (stereo not given), which activity change, negative = cytotoxic is on record?
A: inconclusive: -32.2% [cytotoxic]

Q: For O=C(NCc1ccc(F)cc1)c1c2c(nc3ccccc13)CCC2, which Potency is on record?
A: inconclusive: 11.6 µM [rising, partial curve, poor fit]

Q: With CC(Oc1ccc(Br)cc1)C(=O)Nc1ccc(S(=O)(=O)N(C)C2CCN(C)CC2)cc1 (stereo not given) as the compound, how does the Potency read?
A: inconclusive: 29.1 µM [cytotoxic, single point]

Q: Which Potency does the source give for COc1ccc(C(=O)c2cc([N+](=O)[O-])ccc2N2CCCC2)cc1 here?
A: inconclusive: 20.6 µM [cytotoxic, single point]

Q: With O=C(Nc1cc(Cl)ccc1O)c1snnc1-c1ccccc1 as the compound, how does the Potency read?
A: active: 18.4 µM

Q: Which Potency does the source give for O=C(CCCCCNC(=O)N1CCn2c1nc1ccccc12)NCCc1ccccc1 here?
A: inconclusive: 13 µM [rising, partial curve]

Q: For CCCN(CCC)C(=O)Cn1c(=O)n(-c2ccc(CC)cc2)c(=O)c2c3c(sc21)CCC3, which Potency is on record?
A: inactive

Q: Which Potency does the source give for Cc1nnc(SCC(=O)Nc2sc3c(c2C(N)=O)CCC(C)C3)[nH]c1=O (stereo not given) here?
A: inconclusive: 32.6 µM [rising, single point]

Q: With Cc1nc(NC(=O)c2ccc(Cl)cc2)sc1Cc1ccc2c(c1)OCO2 as the compound, how does the Potency read?
A: active: 9.2 µM

Q: With CC(NC(=S)Nc1ccc(OC(F)F)c(Cl)c1)C(C)(C)C (stereo not given) as the compound, how does the Potency read?
A: inconclusive: 20.6 µM [cytotoxic, single point]

Q: Which Potency does the source give for CCN(CC)S(=O)(=O)c1cccc(C(=O)Nc2cccnc2)c1 here?
A: inactive

Q: For CC(C)CC1C(=O)N(Cc2cn(CC3CCCCC3)nn2)CCS(=O)(=O)N1Cc1ccc(-c2ccc(Cl)cc2)cc1 (stereo not given), which Potency is on record?
A: inconclusive: 25.9 µM [cytotoxic, partial curve, poor fit]

Q: For O=C(NCc1ccccc1)C1Cc2c(-c3cccc(F)c3)ccnc2O1 (stereo not given), which Potency is on record?
A: active: 4.61 µM

Q: With CCOc1ccc(NC(c2ccc(Cl)cc2)c2nnc(-c3cccc(F)c3)o2)cc1 (stereo not given) as the compound, how does the activity change, negative = cytotoxic read?
A: inconclusive: 15.7%

Q: With C[C@H]1CN([C@@H](C)CO)C(=O)CCCn2cc(nn2)CO[C@@H]1CN(C)C(=O)Nc1ccc2c(c1)OCO2 as the compound, how does the Potency read?
A: inactive

Q: For Cc1cccc(N(CC(=O)Nc2ccccc2-c2ccccc2)S(=O)(=O)c2ccccc2)c1C, which Potency is on record?
A: inconclusive: 14.6 µM [cytotoxic, partial curve]

Q: For Cc1cnc(NC(=O)c2cc(S(=O)(=O)N(C)C)ccc2N2CCCC2)s1, which Potency is on record?
A: active: 20.6 µM

Q: With O=C(NCC1CCCO1)C(c1ccco1)N(Cc1ccc(F)cc1)C(=O)CN1C(=O)c2ccccc2S1(=O)=O (stereo not given) as the compound, how does the Potency read?
A: inactive

Q: With O=C1c2ccccc2C2=Nc3ccccc3SC(c3cccc(F)c3)C12 (stereo not given) as the compound, how does the Potency read?
A: active: 20.6 µM

Q: With Nc1nc[nH]c(=O)c1N as the compound, how does the Potency read?
A: inconclusive: 10.3 µM [rising, partial curve, poor fit]

Q: With CCN(C(=O)CSc1nc(-c2ccccc2)no1)c1cccc(C)c1 as the compound, how does the Potency read?
A: active: 6.51 µM

Q: With O=C1N/C(=N/NC(=O)c2cccc3ccccc23)S/C1=C\c1ccccc1OCc1ccccc1 as the compound, how does the Potency read?
A: inconclusive: 18.4 µM [cytotoxic, single point]

Q: For Fc1ccc(NC(=S)NCc2ccccc2Cl)cc1, which Potency is on record?
A: inconclusive: 0.0411 µM [cytotoxic, full curve, poor fit]

Q: For Cc1cc(C)cc(N(C(=O)Cc2cccs2)C(C(=O)NC2CCCCC2)c2ccccn2)c1 (stereo not given), which Potency is on record?
A: inconclusive: 22.4 µM [cytotoxic, single point]

Q: Which Potency does the source give for CCOc1ccc(NC(=O)CN(C)C(=O)c2ccc(N3CCCCC3)c([N+](=O)[O-])c2)cc1OCC here?
A: inactive

Q: With CCC(C)N=C1Sc2nc3ccc(C)cc3cc2CN1CCOC (stereo not given) as the compound, how does the Potency read?
A: inactive

Q: With CC(C)c1ccc(CN2CCC2(C)C(=O)Nc2ccc3c(c2)OCO3)cc1 (stereo not given) as the compound, how does the Potency read?
A: active: 16.4 µM

Q: Which Potency does the source give for COc1ccccc1C(=O)Nc1cccc(OCc2cc(=O)n3c4c(sc3n2)CCCC4)c1 here?
A: inactive

Q: Which Potency does the source give for COc1ccc(-c2nnc(OCc3ccccc3)c3ccccc23)cc1 here?
A: inconclusive: 16.4 µM [cytotoxic, single point]

Q: For O=C(NNC(=O)c1ccccc1O)c1ccc(NS(=O)(=O)c2ccc(F)cc2)cc1, which Potency is on record?
A: inconclusive: 32.6 µM [cytotoxic, single point]

Q: With Nc1nc(N)c2cc(Sc3ccc(Cl)cc3)ccc2n1 as the compound, how does the Potency read?
A: inconclusive: 8.2 µM [cytotoxic, partial curve, poor fit]

Q: With Cc1ccc(C2=NN(S(=O)(=O)c3ccccc3)C(c3ccccc3O)C2)cc1 (stereo not given) as the compound, how does the Potency read?
A: inactive

Q: Which Potency does the source give for O=C(OCc1cc(=O)n2nc(C3CC3)sc2n1)c1ccc(NC(=O)c2ccccc2Cl)cc1 here?
A: inconclusive: 4.61 µM [cytotoxic, full curve]

Q: For CNC(=S)N1CCN(CCNC2=CC(=O)CC(C)(C)C2)CC1, which Potency is on record?
A: inconclusive: 0.731 µM [rising, full curve]

Q: Which Potency does the source give for Cc1cc(C)c2nc(N(CCCN(C)C)C(=O)c3ccc4c(c3)CCCC4)sc2c1 here?
A: inconclusive: 25.9 µM [cytotoxic, partial curve, poor fit]

Q: For O=C(c1ccccc1)N1N=C(c2cccs2)CC1c1ccccc1O (stereo not given), which Potency is on record?
A: inactive

Q: Which activity change, negative = cytotoxic does the source give for CC(=O)[C@@]1(O)CC[C@H]2[C@@H]3C[C@H](C)C4=CC(=O)C=C[C@]4(C)[C@@]3(F)[C@@H](O)C[C@@]21C here?
A: inconclusive: 0%

Q: For Cc1ccc(NC(=O)CCn2nc(-c3ccccc3)c3ccccc3c2=O)c(C)c1, which Potency is on record?
A: inactive

Q: Which Potency does the source give for COc1ccc(Nc2ccc3ccccc3c2)cc1 here?
A: inconclusive: 23.1 µM [cytotoxic, single point]

Q: For CCOC(=O)N1CCC(NC(=O)CN(c2ccc(C(C)C)cc2)S(=O)(=O)c2c(C)nn(C)c2C)CC1, which Potency is on record?
A: inconclusive: 18.4 µM [cytotoxic, single point]

Q: Which Potency does the source give for COc1cc(C2C3=C(COC3=O)Oc3cc4c(cc32)OCO4)cc(OC)c1OC(C)=O (stereo not given) here?
A: active: 0.231 µM

Q: For COc1cc(/C=C/C(=O)Nc2nc3ccc(S(=O)(=O)N(C)C)cc3s2)cc(OC)c1OC, which Potency is on record?
A: inconclusive: 0.82 µM [rising, full curve, poor fit]

Q: With CC(C)CC(=O)NC(Nc1ccc([N+](=O)[O-])cc1)C(Cl)(Cl)Cl (stereo not given) as the compound, how does the Potency read?
A: inconclusive: 29.1 µM [cytotoxic, single point]

Q: With CCC(=O)Nc1ccc(NC(=O)CSc2nnnn2-c2ccc3c(c2)OCCO3)cc1 as the compound, how does the Potency read?
A: inconclusive: 29.1 µM [cytotoxic, single point]

Q: For CCOC(=O)C1CCCN(C(=O)Cc2ccc(OC)c(OC)c2)CC1 (stereo not given), which Potency is on record?
A: inconclusive: 18.4 µM [cytotoxic, single point]

Q: With CCC1Nc2ncnc(N3CCCCC3)c2N(Cc2ccc(Br)cc2)C1=O (stereo not given) as the compound, how does the Potency read?
A: inconclusive: 32.6 µM [cytotoxic, partial curve, poor fit]

From PubChem BioAssay AID1347075 (National Center for Advancing Translational Sciences (NCATS), 2019)
